Reference: publication PMC12040169 (PLOS Biology, 2025)
This is one part of the list.

Test system: T1, CTL2-GFP (C. trachomatis L2/434/Bu, GFP-expressing)
T1 construct: L2/434/Bu, GFP-expressing
Design: species or system HeLa; Intracellular C. trachomatis growth in HeLa cells, bulk GFP fluorescence relative to DMSO
Settings: bulk GFP, single well; 28.5 h, 10 µM; inhibitor

SMILES | % of control remaining
Cc1cc(C)c(C)c(C(=O)COC(=O)c2cc(O)nc3ccccc23)c1C [CBK264066] | 119.534%
CN1C(=O)c2ccccc2OCCCCC[C@H]2[C@@H]1CCCN2C(=O)CN1CCN(CCO)CC1 [CBK292144] | 142.95%
Cc1cc(O)nc(SCCOCCSc2ccc(Cl)cc2)n1 [CBK267372] | 155.55%
COc1cc2[nH]c(=S)n(CCc3c[nH]cn3)c(=O)c2cc1OC [CBK268333] | 125.008%
Cc1onc(-c2ccccc2Cl)c1C(=O)Nc1ccc(S(=O)(=O)NCC2CCCO2)cc1 (stereo not shown) [CBK267536] | 131.896%
COc1cccc(CNC(C)(C)CO)c1OCc1ccc(Cl)cc1 [CBK266552C] | 170.366%
Cc1cc(N2CCOCC2)ccc1NC(=O)CCOc1cccc(Cl)c1 [CBK305724] | 135.65%
O=C(c1cc(-c2cccs2)[nH]n1)N1CCCCCC1 [CBK288108] | 146.114%
Cc1nnc2sc(-c3ccc(NC(=S)NC(=O)c4ccc(-c5ccccc5[N+](=O)[O-])o4)cc3)nn12 [CBK266803] | 175.234%
CC(Nc1cc(N2CCN(S(=O)(=O)N(C)C)CC2)ccc1[N+](=O)[O-])C12CC3CC(CC(C3)C1)C2 (stereo not shown) [CBK265479] | 85.8577%
CCOc1ccc(CNc2ccc(S(N)(=O)=O)cc2)cc1 [CBK267962] | 107.579%
Cc1ccc(S(=O)(=O)N2CCCCC2CO)cc1 (stereo not shown) [CBK051142] | 74.894%
CN(C)C(=O)c1sc2ccccc2c1Cl [CBK067817] | 112.278%
CC(C)(C)c1ccc(C(=O)Nc2nsc(-c3ccc(Cl)cc3)n2)cc1 [CBK113176] | 98.2344%
N#CCCn1cc(C(=O)N2CCOCC2)c(-c2cccc(Cl)c2)n1 [CBK306208] | 126.406%
Cc1nc2c(C(=O)NCCCN3CCCC3=O)cnn2c(C)c1Cc1cccc(F)c1 [CBK162104] | 122.407%
CCn1nccc1C(=O)NC1=C(C#N)CCC1 [CBK265836] | 144.454%
O=c1[nH]c2ncc(-c3cccc4cccnc34)nc2n1Cc1cccnc1 [CBK064305] | 166.587%
COC1CCCC(C(=O)NC(Cc2ccsc2)c2cccnc2)C1 (stereo not shown) [CBK284654] | 159.64%
COc1cc(C(=O)Nc2nc3c(s2)CC(C)CC3)cc(OC)c1OC (stereo not shown) [CBK287299] | 58.9119%

SMILES | % of control remaining
CCCNC(=O)N1CCCC(Cc2ccc(F)cc2F)(C(=O)OCC)C1 (stereo not shown) [CBK307031] | 115.33%
O=C1NC2(CCCCCC2)C(=O)N1Cc1coc(-c2cccs2)n1 [CBK305858] | 100.172%
Cc1nn(Cc2cccc3ccccc23)c(C)c1NC(=O)c1ccncc1 [CBK269990] | 113.57%
COc1ccc(N2CCN(c3cc(C)nc4cc(-c5nccn5C)nn34)CC2)cc1 [CBK286187] | 146.257%
O=C(CN1CCOCC1)NC(=O)Nc1ccccc1 [CBK269213] | 113.371%
COc1ccccc1CN1CC[C@H]2NC(=O)CNC(=O)C3(C/C=C/C[C@H]2C1)CCN(C(C)=O)CC3 [CBK292107] | 117.398%
COc1ccc(OCC(=O)Nc2ccc(C(=O)O)c(Cl)c2)cc1 [CBK287108] | 89.4175%
CC1CCN(S(=O)(=O)c2cccs2)CC1 [CBK102093] | 120.663%
CC(Oc1ccc(F)cc1)C(=O)N1CCCc2c(cnn2C)C1 (stereo not shown) [CBK285230] | 126.69%
COc1ccc(CN2CCCN(c3ccnc(OCCN4CCOCC4)n3)CC2)cc1 [CBK083800] | 129.074%
COc1cccc(C(=O)Nc2nc3ccc(F)cc3s2)c1 [CBK287342] | 123.852%
COc1ccc([C@@]23CCC(NC(=O)Nc4cc(C(F)(F)F)ccc4F)C[C@@H]2N(C)CC3)cc1OC (stereo partly shown) [CBK047552T] | 106.992%
CC(C)n1cnnc1CN(C)C(=O)CCc1nc2ccccc2s1 [CBK304638] | 117.315%
COc1ccc(CN2CCN(c3ccccn3)CC2)cc1O [CBK261570] | 116.77%
N#C/C(=C\Nc1ccc(S(N)(=O)=O)cc1)c1nc(-c2cc3c(ccc4ccccc43)oc2=O)cs1 [CBK262376] | 107.891%
NC(=O)c1cccc(-c2cnc(N)c(NCc3ccco3)n2)c1 [CBK063660] | 125.941%
COc1cc(CNC(=O)c2ccc3[nH]ccc3c2)cc(OC)c1OC [CBK149073] | 108.753%
O=C(NC1CCCC1)c1cccnc1 [CBK200236] | 86.6233%
CC(C)OC(=O)Cc1nc(CN2CCc3sccc3C2C)cs1 (stereo not shown) [CBK305284] | 136.748%
CC(C)(C)c1ccc(C(=O)N2CC[C@H]3NC(=O)N(Cc4ccccc4)C(=O)[C@H]32)cc1 [CBK289294] | 117.142%

Sorted by formula weight (low to high): 3 of the compounds above
SMILES | % of control remaining
O=C(CN1CCOCC1)NC(=O)Nc1ccccc1 [CBK269213] | 113.371%
CC(C)OC(=O)Cc1nc(CN2CCc3sccc3C2C)cs1 (stereo not shown) [CBK305284] | 136.748%
COc1ccc(CN2CCCN(c3ccnc(OCCN4CCOCC4)n3)CC2)cc1 [CBK083800] | 129.074%
